Laboratory results as given in the supplement of paper PMC12067093, “Discovery and optimisation of a covalent ligand for TRIM25 and its application to targeted protein ubiquitination” (Chemical Science, 2025).
The other results are listed elsewhere or left out.

Amino acid sequences for entries named in this document (tags omitted). A change or cut given only in a name is not applied to a line headed by its entry.
UniProt O00499: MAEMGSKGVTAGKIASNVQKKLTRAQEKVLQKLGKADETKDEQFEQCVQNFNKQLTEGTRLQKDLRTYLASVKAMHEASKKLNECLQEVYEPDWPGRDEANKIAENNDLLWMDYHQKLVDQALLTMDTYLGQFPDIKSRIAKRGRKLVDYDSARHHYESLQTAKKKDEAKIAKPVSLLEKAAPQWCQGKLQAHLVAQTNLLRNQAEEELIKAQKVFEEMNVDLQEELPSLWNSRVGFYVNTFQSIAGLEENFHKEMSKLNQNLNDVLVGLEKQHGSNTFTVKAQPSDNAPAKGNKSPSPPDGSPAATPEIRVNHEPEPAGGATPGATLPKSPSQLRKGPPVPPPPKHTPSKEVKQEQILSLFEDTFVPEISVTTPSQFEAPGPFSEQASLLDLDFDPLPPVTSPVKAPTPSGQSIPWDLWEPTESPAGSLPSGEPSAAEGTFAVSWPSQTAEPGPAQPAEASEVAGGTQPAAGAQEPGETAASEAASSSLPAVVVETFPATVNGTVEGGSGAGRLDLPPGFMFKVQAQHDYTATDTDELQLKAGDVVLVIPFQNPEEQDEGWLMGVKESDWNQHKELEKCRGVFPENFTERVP
UniProt P53004: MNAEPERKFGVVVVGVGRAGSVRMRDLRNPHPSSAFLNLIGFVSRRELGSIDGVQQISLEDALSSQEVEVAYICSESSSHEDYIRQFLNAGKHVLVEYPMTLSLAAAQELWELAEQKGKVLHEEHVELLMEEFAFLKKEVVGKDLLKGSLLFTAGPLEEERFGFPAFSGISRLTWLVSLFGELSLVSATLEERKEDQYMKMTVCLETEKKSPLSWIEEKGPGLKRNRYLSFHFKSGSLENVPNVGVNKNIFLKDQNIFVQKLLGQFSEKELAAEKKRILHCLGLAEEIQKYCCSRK
UniProt O95861: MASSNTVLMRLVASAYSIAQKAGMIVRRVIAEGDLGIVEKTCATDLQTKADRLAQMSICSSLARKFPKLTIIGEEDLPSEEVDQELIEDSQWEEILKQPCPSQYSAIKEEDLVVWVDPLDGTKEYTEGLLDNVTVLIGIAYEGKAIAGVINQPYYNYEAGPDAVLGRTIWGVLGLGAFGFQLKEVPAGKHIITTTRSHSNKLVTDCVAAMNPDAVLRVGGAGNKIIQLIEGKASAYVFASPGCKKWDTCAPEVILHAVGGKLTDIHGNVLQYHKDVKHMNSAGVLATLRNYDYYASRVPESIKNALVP
UniProt Q9NSY1, whole entry, looked up: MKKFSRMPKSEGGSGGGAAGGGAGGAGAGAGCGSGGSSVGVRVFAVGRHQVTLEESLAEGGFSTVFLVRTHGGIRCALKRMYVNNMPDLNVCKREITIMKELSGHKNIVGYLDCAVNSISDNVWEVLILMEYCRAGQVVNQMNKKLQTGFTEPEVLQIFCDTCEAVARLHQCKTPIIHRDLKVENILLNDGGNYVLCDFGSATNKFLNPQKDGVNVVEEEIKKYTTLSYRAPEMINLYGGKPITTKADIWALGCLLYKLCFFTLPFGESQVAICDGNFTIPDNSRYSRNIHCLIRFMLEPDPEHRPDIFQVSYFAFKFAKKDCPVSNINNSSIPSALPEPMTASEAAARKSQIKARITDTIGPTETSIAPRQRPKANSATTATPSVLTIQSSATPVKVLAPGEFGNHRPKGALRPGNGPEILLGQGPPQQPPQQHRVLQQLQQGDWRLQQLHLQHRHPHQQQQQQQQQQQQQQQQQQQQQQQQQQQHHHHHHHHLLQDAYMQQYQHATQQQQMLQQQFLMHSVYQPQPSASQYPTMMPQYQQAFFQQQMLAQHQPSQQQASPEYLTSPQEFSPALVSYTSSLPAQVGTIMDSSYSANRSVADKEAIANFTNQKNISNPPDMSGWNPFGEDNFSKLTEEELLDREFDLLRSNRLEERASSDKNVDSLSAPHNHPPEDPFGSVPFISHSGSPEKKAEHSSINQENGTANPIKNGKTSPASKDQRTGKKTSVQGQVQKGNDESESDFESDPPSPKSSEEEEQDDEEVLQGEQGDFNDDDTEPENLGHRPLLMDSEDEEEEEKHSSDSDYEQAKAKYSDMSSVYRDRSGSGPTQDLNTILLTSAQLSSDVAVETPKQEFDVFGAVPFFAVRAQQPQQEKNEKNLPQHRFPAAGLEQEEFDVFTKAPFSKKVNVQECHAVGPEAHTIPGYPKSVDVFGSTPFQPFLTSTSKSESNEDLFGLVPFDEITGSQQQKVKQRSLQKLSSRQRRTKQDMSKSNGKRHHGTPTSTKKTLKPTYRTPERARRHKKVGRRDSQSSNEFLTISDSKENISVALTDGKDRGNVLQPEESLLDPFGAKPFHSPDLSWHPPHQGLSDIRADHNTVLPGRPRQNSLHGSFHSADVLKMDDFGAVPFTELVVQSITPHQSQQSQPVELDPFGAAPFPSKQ
UniProt Q13867: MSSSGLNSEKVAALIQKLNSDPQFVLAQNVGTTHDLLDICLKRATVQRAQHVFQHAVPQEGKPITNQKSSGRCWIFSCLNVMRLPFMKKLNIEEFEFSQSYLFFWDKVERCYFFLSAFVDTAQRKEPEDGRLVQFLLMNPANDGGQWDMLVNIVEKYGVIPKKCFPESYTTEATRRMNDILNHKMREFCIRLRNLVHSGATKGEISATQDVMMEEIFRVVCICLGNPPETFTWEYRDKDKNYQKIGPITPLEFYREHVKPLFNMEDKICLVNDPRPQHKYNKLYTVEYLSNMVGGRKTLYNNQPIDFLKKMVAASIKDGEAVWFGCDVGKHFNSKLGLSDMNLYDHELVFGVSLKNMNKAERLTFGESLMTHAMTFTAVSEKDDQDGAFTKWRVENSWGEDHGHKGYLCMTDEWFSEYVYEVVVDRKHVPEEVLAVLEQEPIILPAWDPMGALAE
UniProt Q8NFC6: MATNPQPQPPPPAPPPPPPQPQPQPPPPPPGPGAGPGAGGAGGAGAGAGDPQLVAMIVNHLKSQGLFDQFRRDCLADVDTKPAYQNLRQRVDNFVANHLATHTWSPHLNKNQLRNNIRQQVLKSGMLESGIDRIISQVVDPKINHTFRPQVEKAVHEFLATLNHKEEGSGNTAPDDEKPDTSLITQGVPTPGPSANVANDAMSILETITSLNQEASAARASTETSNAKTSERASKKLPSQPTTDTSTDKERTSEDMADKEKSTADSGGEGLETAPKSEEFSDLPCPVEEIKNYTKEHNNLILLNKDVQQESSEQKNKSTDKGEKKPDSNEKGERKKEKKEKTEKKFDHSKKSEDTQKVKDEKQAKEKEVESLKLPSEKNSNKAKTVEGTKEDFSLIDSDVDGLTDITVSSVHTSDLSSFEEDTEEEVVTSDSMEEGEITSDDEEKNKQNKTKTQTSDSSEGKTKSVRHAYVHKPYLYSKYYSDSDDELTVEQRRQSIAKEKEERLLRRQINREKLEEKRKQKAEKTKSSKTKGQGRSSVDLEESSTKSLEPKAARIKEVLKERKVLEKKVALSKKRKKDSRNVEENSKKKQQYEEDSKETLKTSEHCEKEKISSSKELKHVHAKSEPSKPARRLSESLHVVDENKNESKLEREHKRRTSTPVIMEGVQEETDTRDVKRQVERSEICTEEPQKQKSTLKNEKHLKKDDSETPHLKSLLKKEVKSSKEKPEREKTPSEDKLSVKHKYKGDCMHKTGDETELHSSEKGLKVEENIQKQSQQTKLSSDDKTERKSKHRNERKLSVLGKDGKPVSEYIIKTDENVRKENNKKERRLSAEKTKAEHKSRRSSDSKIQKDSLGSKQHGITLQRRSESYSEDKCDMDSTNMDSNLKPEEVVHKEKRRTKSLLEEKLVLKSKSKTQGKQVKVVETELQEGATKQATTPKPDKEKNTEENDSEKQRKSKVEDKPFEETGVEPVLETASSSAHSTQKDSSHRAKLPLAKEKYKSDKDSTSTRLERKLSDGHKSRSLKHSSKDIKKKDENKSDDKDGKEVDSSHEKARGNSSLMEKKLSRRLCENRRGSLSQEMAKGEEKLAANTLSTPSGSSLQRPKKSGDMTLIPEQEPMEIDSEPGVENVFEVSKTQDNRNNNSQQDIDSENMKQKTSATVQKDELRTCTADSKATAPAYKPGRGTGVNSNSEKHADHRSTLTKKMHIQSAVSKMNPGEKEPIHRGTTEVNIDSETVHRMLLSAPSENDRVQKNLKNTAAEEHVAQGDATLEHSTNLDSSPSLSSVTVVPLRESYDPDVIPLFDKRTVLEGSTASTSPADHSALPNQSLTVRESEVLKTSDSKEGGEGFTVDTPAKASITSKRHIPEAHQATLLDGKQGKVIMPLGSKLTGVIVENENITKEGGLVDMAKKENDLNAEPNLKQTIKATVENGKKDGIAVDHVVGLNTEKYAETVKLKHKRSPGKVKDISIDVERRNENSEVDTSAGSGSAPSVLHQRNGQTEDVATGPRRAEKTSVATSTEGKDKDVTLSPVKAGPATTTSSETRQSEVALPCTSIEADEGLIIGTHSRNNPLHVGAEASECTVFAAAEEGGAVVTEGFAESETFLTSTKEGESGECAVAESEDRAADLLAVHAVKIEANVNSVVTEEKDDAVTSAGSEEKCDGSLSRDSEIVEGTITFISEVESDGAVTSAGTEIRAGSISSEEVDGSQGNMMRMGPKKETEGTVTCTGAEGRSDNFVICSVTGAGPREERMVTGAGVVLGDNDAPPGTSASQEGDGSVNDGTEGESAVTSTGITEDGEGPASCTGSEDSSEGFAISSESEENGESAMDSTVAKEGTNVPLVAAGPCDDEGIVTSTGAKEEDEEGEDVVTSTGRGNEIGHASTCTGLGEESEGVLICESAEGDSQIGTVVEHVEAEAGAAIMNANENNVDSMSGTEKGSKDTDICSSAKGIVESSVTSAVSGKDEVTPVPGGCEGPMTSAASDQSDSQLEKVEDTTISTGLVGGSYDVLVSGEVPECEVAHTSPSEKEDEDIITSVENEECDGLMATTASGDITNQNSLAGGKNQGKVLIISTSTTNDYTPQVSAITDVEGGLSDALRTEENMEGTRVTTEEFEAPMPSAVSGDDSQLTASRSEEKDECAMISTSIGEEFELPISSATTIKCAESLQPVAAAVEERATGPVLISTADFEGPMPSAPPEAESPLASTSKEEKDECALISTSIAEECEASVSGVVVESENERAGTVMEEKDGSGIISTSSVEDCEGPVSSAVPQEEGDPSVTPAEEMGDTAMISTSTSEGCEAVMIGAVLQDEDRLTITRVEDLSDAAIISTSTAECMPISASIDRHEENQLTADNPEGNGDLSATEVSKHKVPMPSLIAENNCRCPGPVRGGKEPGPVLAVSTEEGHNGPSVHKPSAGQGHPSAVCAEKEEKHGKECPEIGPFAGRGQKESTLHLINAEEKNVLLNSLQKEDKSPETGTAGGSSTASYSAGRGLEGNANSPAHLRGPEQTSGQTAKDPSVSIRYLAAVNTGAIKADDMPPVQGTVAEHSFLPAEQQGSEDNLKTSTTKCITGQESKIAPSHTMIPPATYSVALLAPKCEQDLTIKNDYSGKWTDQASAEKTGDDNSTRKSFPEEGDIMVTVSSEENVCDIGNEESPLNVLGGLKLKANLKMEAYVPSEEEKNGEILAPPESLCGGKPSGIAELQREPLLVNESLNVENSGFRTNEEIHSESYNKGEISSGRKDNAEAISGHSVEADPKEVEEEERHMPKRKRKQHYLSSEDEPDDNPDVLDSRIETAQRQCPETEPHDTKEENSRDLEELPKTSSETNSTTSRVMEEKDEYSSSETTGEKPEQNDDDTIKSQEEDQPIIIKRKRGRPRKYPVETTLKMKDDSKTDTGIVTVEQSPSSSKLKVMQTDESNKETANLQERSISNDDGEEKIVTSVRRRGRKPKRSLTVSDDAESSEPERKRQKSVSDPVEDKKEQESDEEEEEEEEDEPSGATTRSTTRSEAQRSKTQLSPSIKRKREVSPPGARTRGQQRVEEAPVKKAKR
UniProt O14965: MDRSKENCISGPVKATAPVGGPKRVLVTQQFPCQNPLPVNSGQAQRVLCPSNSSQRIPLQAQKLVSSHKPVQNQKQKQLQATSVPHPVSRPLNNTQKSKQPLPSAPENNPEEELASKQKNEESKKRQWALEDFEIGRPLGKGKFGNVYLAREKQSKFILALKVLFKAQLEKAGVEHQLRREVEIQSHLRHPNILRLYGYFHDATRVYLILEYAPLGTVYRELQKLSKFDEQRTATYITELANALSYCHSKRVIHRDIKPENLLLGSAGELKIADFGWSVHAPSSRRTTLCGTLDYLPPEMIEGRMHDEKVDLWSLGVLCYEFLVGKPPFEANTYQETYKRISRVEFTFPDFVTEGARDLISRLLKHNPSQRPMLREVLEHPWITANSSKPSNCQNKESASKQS
UniProt Q9BUT1: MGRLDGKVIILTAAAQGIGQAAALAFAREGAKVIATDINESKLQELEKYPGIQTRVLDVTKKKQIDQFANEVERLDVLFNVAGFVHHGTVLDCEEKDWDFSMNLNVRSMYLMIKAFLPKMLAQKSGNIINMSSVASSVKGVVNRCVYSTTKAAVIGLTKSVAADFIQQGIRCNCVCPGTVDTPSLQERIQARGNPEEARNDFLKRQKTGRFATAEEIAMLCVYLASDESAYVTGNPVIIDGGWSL
UniProt Q9H3K6: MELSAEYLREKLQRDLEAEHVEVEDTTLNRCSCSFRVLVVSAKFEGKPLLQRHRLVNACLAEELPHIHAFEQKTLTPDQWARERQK

Compound: Cc1cc(ccc1-c1ccccc1)C(=O)N1CCCN(CC1)C(=O)CCl [compound 10]
Assay: probe-labelled cysteine peptide fold change vs DMSO (competition) (log2 fold change); higher = less target engagement (more negative = stronger competition)
Conditions: THP-1, incubation time: 4 h
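Note: competitive profiling in live THP-1 cells: cysteine peptides tagged with an iodoacetamide desthiobiotin (IA-DTB) probe, intensity after compound treatment relative to DMSO-treated cells.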

Target	probe-labelled cysteine peptide fold change (10 µM)	probe-labelled cysteine peptide fold change (50 µM)
BHLHE22_Q8NFJ8_156_GSVAESSGGEQSPDDDSDGRCELVLR (UniProt Q8NFJ8)	-0.393	-0.217
BAZ1B_Q9UIG0_1202_LILCDECNK (UniProt Q9UIG0)	0.0976	0.283
BAZ1B_Q9UIG0_1231_AFHLFCLRPALYEVPDGEWQCPACQPATAR (UniProt Q9UIG0)	-0.0528	-0.0992
BIN1_O00499_47_ADETKDEQFEQCVQNFNK (UniProt O00499)	0.0224	-0.229
BAZ2A_Q9UIF9_795_AKPACK (UniProt Q9UIF9)	-0.144	-0.471
BIRC6_Q9NR09_4666_VCLSILNTWHGRPEEK (UniProt Q9NR09)	0.0507	0.0823
BLVRA_P53004_204_MTVCLETEK (UniProt P53004)	0.145	0.0167
BPNT1_O95861_249_KWDTCAPEVILHAVGGK (UniProt O95861)	-0.111	0.0123
BAZ1A_Q9NRL2_893+898_WCFYSSCEQLDQLIEALNSR (UniProt Q9NRL2)	-0.092	-0.295
BMP2K_Q9NSY1_292_NIHCLIR (UniProt Q9NSY1)	-0.151	0.143
BCOR_Q6W2J9_1311_QAQPSCAPASRPPAK (UniProt Q6W2J9)	-0.0417	-0.0219
BLMH_Q13867_164_CFPESYTTEATR (UniProt Q13867)	-0.0235	0.0482
BIRC6_Q9NR09_4183_HAQCLLR (UniProt Q9NR09)	0.135	-0.121
BOD1L1_Q8NFC6_1618_EGESGECAVAESEDR (UniProt Q8NFC6)	-0.29	-0.1
BIRC6_Q9NR09_463_RPTLAWLEDSSSCSDIPK (UniProt Q9NR09)	0.0349	0.175
BIRC6_Q9NR09_3773_TAIENATVAFFLQCISCHPNNQK (UniProt Q9NR09)	0.213	0.136
AURKA_O14965_393_EVLEHPWITANSSKPSNCQNK (UniProt O14965)	-0.12	-0.525
BDP1_A6H8Y1_2039_IVHECQELSSPVITTSPASFEENK (UniProt A6H8Y1)	-0.401	-0.41
BIRC6_Q9NR09_4183_KHAQCLLR (UniProt Q9NR09)	-0.0476	-1.02
BCL2L2_Q92843_29_GYVCGAGPGEGPAADPLHQAMR (UniProt Q92843)	-0.232	0.0369
BDH2_Q9BUT1_145_CVYSTTK (UniProt Q9BUT1)	-0.332	-0.235
BRAP_Q7Z569_47_TTLASAVACLEGK (UniProt Q7Z569)	-0.252	-0.245

Taken from the results shown for reference:
Target	probe-labelled cysteine peptide fold change (10 µM)	probe-labelled cysteine peptide fold change (50 µM)
BIN1_O00499_47_ADETKDEQFEQCVQNFNK (UniProt O00499)	0.0224	-0.229
BAZ2A_Q9UIF9_795_AKPACK (UniProt Q9UIF9)	-0.144	-0.471
BIRC6_Q9NR09_4666_VCLSILNTWHGRPEEK (UniProt Q9NR09)	0.0507	0.0823
BLVRA_P53004_204_MTVCLETEK (UniProt P53004)	0.145	0.0167
BPNT1_O95861_249_KWDTCAPEVILHAVGGK (UniProt O95861)	-0.111	0.0123
BAZ1A_Q9NRL2_893+898_WCFYSSCEQLDQLIEALNSR (UniProt Q9NRL2)	-0.092	-0.295
BMP2K_Q9NSY1_292_NIHCLIR (UniProt Q9NSY1)	-0.151	0.143
BCOR_Q6W2J9_1311_QAQPSCAPASRPPAK (UniProt Q6W2J9)	-0.0417	-0.0219
BLMH_Q13867_164_CFPESYTTEATR (UniProt Q13867)	-0.0235	0.0482
BIRC6_Q9NR09_4183_HAQCLLR (UniProt Q9NR09)	0.135	-0.121
BOD1L1_Q8NFC6_1618_EGESGECAVAESEDR (UniProt Q8NFC6)	-0.29	-0.1
BIRC6_Q9NR09_463_RPTLAWLEDSSSCSDIPK (UniProt Q9NR09)	0.0349	0.175
BIRC6_Q9NR09_3773_TAIENATVAFFLQCISCHPNNQK (UniProt Q9NR09)	0.213	0.136

Remaining list, next part:

Target	probe-labelled cysteine peptide fold change (10 µM)	probe-labelled cysteine peptide fold change (50 µM)
BARGIN_Q6ZT62_110_ALEMSCAIQNQLAR (UniProt Q6ZT62)	0.17	0.265
BAZ2A_Q9UIF9_1660_SAAQVCLCLGQLER (UniProt Q9UIF9)	0.0197	0.00975
BCORL1_Q5H9F3_1709_LLGSEVEFQSCNS (UniProt Q5H9F3)	0.158	0.132
B4GALT1_P15291_172_DCVSPHK (UniProt P15291)	-0.221	-0.0203
BCOR_Q6W2J9_1525_HLLEYGADVNCSAQDGTRPLHDAVENDHLEIVR (UniProt Q6W2J9)	-0.0362	0.153
BRAT1_Q6PJG6_228_CQSPWTEALWVR (UniProt Q6PJG6)	-0.354	-0.793
BLMH_Q13867_40_LNSDPQFVLAQNVGTTHDLLDICLK (UniProt Q13867)	0.0304	0.35
BCAT1_P54687_293_RCILDLAHQWGEFK (UniProt P54687)	0.0115	-0.332
BOLA2B_Q9H3K6_59_LVNACLAEELPHIHAFEQK (UniProt Q9H3K6)	-0.0829	-0.00866
B4GALT7_Q9UBV7_307_TALSVGGAPCTVLNIMLDCDK (UniProt Q9UBV7)	0.311	0.701
BCKDHB_P21953_207_SPWGCVGHGALYHSQSPEAFFAHCPGIK (UniProt P21953)	-0.0739	-0.0892
BAG6_P46379_345+349_CNLACTPPR (UniProt P46379)	-0.175	-0.352
B4GALT3_O60512_190+209_EALRDEEWDCLFLHDVDLLPENDHNLYVCDPR (UniProt O60512)	-0.199	0.202
ATXN2_Q99700_892_RGPEVTSQGVQTSSPACK (UniProt Q99700)	-0.0651	-0.133
BAZ2A_Q9UIF9_828_KPTEDMCLTDHQPLPDFSR (UniProt Q9UIF9)	-0.178	-0.00316
BDH2_Q9BUT1_93_LDVLFNVAGFVHHGTVLDCEEK (UniProt Q9BUT1)	-0.102	0.424
BDH1_Q02338_86_GFLVFAGCLMK (UniProt Q02338)	-0.408	0.234
BANF1_O75531_77_DCFGCLR (UniProt O75531)	0.167	-0.0799
BPNT1_O95861_100_QPCPSQYSAIKEEDLVVWVDPLDGTK (UniProt O95861)	-0.0812	-0.394
BLM_P54132_704_SLCYQLPACVSPGVTVVISPLR (UniProt P54132)	-0.311	0.68
BAZ1A_Q9NRL2_764_QEQINCVTREPLTADEEEALK (UniProt Q9NRL2)	0.0138	-0.149
